Values from PubChem BioAssay AID1259254 (NCATS, 2017).
Screen: 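Gene knock-downs that lead to re-replication, shown by excess G2 DNA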 (primary screen). Cells: human HCT116 colorectal cancer cells. Reagents: single siRNA against human genes. Time to read-out: 3 days. Read-out: 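Imaged Hoechst DNA stain sorts each cell into a cycle phase by DNA amount; per plate, G2 fraction set to 0% for non-targeting and 100% for GMNN siRNA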. Scale: G2 robust z-score: higher = more G2 cells, more excess DNA replication. Hit rule: 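An siRNA counts as active if its G2 robust z-score lies at least 5 MADs above the screen median; here such calls match roughly 38% of GMNN control or more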.
This is one part, drawn at random, of about 59,000 deposited reagents. Over the whole deposit, about 1,550 (2.6%) are marked active. 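G2 share is only a proxy for re-replication; each gene was hit by three separate siRNAs, and active genes were retested.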 A number with no mark means an inactive call. Not all columns of the deposit are shown. Not given: the amount of reagent.

G2 robust z-score, by gene symbol and reagent
SPATA8 (spermatogenesis associated 8): SID160758308 -0.278; SID160758309 0.0529; SID160758310 1.87
ZBTB41 (zinc finger and BTB domain containing 41): SID160765223 -0.296; SID160765224 1.21; SID160765225 0.422
SIPA1L2 (signal induced proliferation associated 1 like 2): SID160746292 -0.4; SID160746293 2.92; SID160746295 -0.406
LOC729187 (retired record): SID160734490 -0.0759; SID160772528 0.1; SID160772529 -0.0804
SMC4 (structural maintenance of chromosomes 4): SID160724544 3.52; SID160724554 3.56; SID160724564 1.31
CAMK1 (calcium/calmodulin dependent protein kinase I): SID160720270 -0.385; SID160720271 -0.313; SID160720272 0.541
CFB (complement factor B): SID160725367 -0.915; SID160725433 0.563; SID160725493 -0.297
SETD2 (SET domain containing 2, histone lysine methyltransferase): SID160739000 -0.0786; SID160739001 -0.476; SID160739002 -1.19
LINC01630 (long independently transcribed non-coding RNA 1630): SID160734463 -0.00637; SID160772388 -1.17; SID160772389 -0.41
MUC16 (mucin 16, cell surface associated): SID160754582 0.163; SID160754583 4.24; SID160754584 1.07
MRPL10 (mitochondrial ribosomal protein L10): SID160732403 -0.425; SID160756291 -0.15; SID160756292 1.58
RPP25L (ribonuclease P/MRP subunit p25 like): SID160757612 0.562; SID160757613 2.65; SID160757614 -0.0393
TMEM71 (transmembrane protein 71): SID160757532 -0.102; SID160757533 -0.603; SID160757534 -0.297
PSMA8 (proteasome 20S subunit alpha 8): SID160758031 3.47; SID160758032 1.16; SID160758033 -0.13
CSNK1D (casein kinase 1 delta): SID160749374 -2.15; SID160749384 -1.18; SID160749395 -0.779

Part of the list above, set out differently:
gene symbol | PubChem SID | G2 robust z-score
ZBTB41 (zinc finger and BTB domain containing 41) | SID160765225 | 0.422
SIPA1L2 (signal induced proliferation associated 1 like 2) | SID160746292 | -0.4
SIPA1L2 (signal induced proliferation associated 1 like 2) | SID160746293 | 2.92
SIPA1L2 (signal induced proliferation associated 1 like 2) | SID160746295 | -0.406
LOC729187 (retired record) | SID160734490 | -0.0759
LOC729187 (retired record) | SID160772528 | 0.1
LOC729187 (retired record) | SID160772529 | -0.0804

Further reagents follow:
G2 robust z-score, by gene symbol and reagent
LOC389834 (ankyrin repeat domain 57 pseudogene): SID160766290 -0.435; SID160766291 -0.391; SID160766292 0.443
CCKAR (cholecystokinin A receptor): SID160737555 1.35; SID160737566 0.207; SID160737577 -1.01
PC (pyruvate carboxylase): SID160713877 0.127; SID160713878 1.18; SID160713880 -0.849
GRK2 (G protein-coupled receptor kinase 2): SID160715112 -0.457; SID160715123 2.78; SID160715134 -0.567
ENDOU (endonuclease, poly(U) specific): SID160721118 0.0176; SID160721119 -1.26; SID160721121 -0.141
BANP (BTG3 associated nuclear protein): SID160742636 0.0516; SID160742637 -1.16; SID160742638 0.0305
TIMCC (TIM double twin CX3C motif chaperone): SID160752908 -0.956; SID160752909 3.73; SID160752911 -0.729
JKAMP (JNK1/MAPK8 associated membrane protein): SID160740943 -0.86; SID160740944 0.685; SID160740945 1.66
